Data as given in PMC4414571, “Peptides of Presenilin-1 Bind the Amyloid Precursor Protein Ectodomain and Offer a Novel and Specific Therapeutic Approach to Reduce ß-Amyloid in Alzheimer’s Disease” (PLoS ONE, 2015).
Results are given in words; binding and its absence hold for the method and conditions named. Some entries that bind do so weakly or less than the wild type.

What was measured:
[1] = molecular target: full-length human APP 695 on transfected APP-null mouse fibroblasts (human) (UniProt P05067); experiment: confocal microscopy of cells labelled with biotinylated peptide and fluorescent streptavidin; competition: APP-expressing cells treated with 2-fold excess unbiotinylated P4 or P8 for 5 min, then with biotinylated peptides in the usual way; only the binder purified
[2] = molecular target: full-length human APP 695 on transfected APP-null mouse fibroblasts (human) (UniProt P05067); experiment: confocal microscopy of cells labelled with biotinylated peptide and fluorescent streptavidin; APP-/- mouse fibroblasts transfected with APP695 (untransfected cells as control); biotinylated peptide 0.5-2 uM in ice-cold medium for 5 min, washed, fixed, Alexa Fluor 488 streptavidin; only the binder purified
[3] = molecular target: full-length human APP 695 on transfected APP-null mouse fibroblasts (human) (UniProt P05067); experiment: confocal microscopy of cells labelled with biotinylated peptide and fluorescent streptavidin; competition: biotinylated peptides first treated with purified APPs (5 uM), then added to APP-expressing cells in the usual way; only the binder purified

Row | binding [1] | binding [2] | binding [3] | Binder
1 | binds | binds | binds | RRSLGHPEPLSNGRP (biotin at the NH2-terminus) [biotinylated peptide P4 (residues 41-55 of PS-1)]
2 | binds | binds | binds | DEEEDEEL (biotin at the NH2-terminus) [biotinylated peptide P8 (residues 66-73 of PS-1)]
